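Whole-cell growth test on Mycobacterium tuberculosis, read after 4 days in a medium based on cholesterol and the lipid DPPC; the read-out is not stated. Compounds at 50 µM. Direction is inferred from retests: higher values go with more growth inhibition. About 69,000 compounds were tested under these conditions; 0.54% (about 370) showed 50% or more at least once.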

The filed quantity is “Percent Effect” (%).
The record does not define 0% and 100%; most values in the screen are far below 50% and negative numbers occur (in some assays of this library far below -100).
The compounds are a random part of those screened.
Two or more numbers in one place are separate tests of the same structure; such repeats can differ widely.

- Cc1nc(N2CCCN(C(=O)c3ccsc3)CC2)c2cnn(C)c2n1 : 5.569%
- O=C(O)C(F)(F)F.O=C(O)C(F)(F)F.[H][C@@]12CN(Cc3ccncc3)C[C@]1([H])[C@H](OC)CCN2S(=O)(=O)N(C)C : -1.81%
- CN(CC1COc2ccccc2O1)C(=O)CCn1cncn1 (stereo unspecified) : -7.483%
- COCc1nc(C(=O)N2CCCCC2Cn2cccn2)cs1 (stereo unspecified) : -8.533%
- CCn1ccc(C(=O)N2CCCN(Cc3ccccc3F)CC2)cc1=O : -24.64%
- O=C(NCCCn1nc2ccccn2c1=O)NCc1ccccc1 : -18.5%
- CC(C)OCCOCc1cccc(NC(=O)NCCn2ccnc2)c1 : -15.54%
- CCc1nc(C2CCCN(C(=O)c3cccc4cn[nH]c34)C2)no1 (stereo unspecified) : -14.32%
- CCNC(=O)NC(=O)CNC(C)(CC)c1nc(C)cs1 (stereo unspecified) : -1.568% & -1.818%
- O=C(Nc1ccccc1)c1cc2n(n1)CCCN(C(=O)N1CCCC1)C2 : -29.04%
- Cc1ncc(CNC(=O)CCc2cccs2)c(C2CCCN2C)n1 (stereo unspecified) : 12.43%
- COCc1cc(O)nc(C2CCCN(Cc3cccc(Cl)c3Cl)C2)n1 (stereo unspecified) : 15.46%
- CC(=O)NC1CCN(C(=O)Nc2ccc(SC(F)F)cc2)CC1 : 5.977%
- CCc1ccc(O)c(C(=O)NC2CCN(C(=O)OC)CC2)c1 : -12.26%
- O=C(O)C(F)(F)F.O=C(O)C(F)(F)F.O=C(O)C(F)(F)F.[H][C@@]12CCN(c3ncccn3)[C@@]1([H])CCN2Cc1csc(C)n1 : 7.305%
- O=S(=O)(CC1CCCCO1)Nc1cnn(CC(F)F)c1 (stereo unspecified) : 4.349%
- Cn1c(C(=O)N2CCC(C(N)=O)C2)c(Cl)c2ccccc21 (stereo unspecified) : 4.995%
- CCOc1ncccc1CNCc1c(C(C)C)nn(C)c1N(C)C : -16.95%
- O=c1n(CCSCc2ccccc2Cl)nc2ccccn12 : 36.01%
- Cc1cc(C(=O)N2CCCC2CN2CCCC2)no1 (stereo unspecified) : -6.106%
- Cc1cccc(C(C(=O)NC(C)(C)CN2CCOCC2)N(C)C)c1 (stereo unspecified) : -17.24%
- Cc1ccccc1-c1noc(CN2CCC(c3ccn[nH]3)CC2)n1 : -6.735% & 7.863%
- O=C(c1ccccc1)N(CC1CC1)c1cccnc1 : -2.855%
- CCS(=O)(=O)N1CCc2ccc(NC(=O)Nc3cccc(C#N)c3)cc21 : 25.09%
- Cc1cc(C)n(CC2CN(CC(=O)NC3CCOCC3)CCO2)n1 (stereo unspecified) : -11.38%
- Cc1csc(N2CCCN(C(=O)C(C)n3ccnc3)CC2)n1 (stereo unspecified) : 9.94%
- Cc1cc(CNC(=O)c2cccs2)ccc1S(C)(=O)=O : 0.3378% & -11.12%
- CC(NC(=O)NCCOc1ccc(F)c(F)c1)c1nncn1C (stereo unspecified) : -4.174%
- Cc1nc(COC[C@H]2CCC[C@]23CN(CC2CC2)CCO3)cs1 : -20.92%

2 of the entries, repeated:

SMILES	percent effect
COCc1nc(C(=O)N2CCCCC2Cn2cccn2)cs1 (stereo unspecified)	-8.533
Cc1nc(COC[C@H]2CCC[C@]23CN(CC2CC2)CCO3)cs1	-20.92

Measurements from “University of Dundee, Small-Polar-MMV Screening Library” (2021), ChEMBL document CHEMBL3988442.